In brackets after ≈: the same amount, converted by molar mass. The source gives many values for each of these; only a part stands here.
System: Escherichia coli
Assay: minimum inhibitory concentration (MIC)
Description: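 Broth microdilution MIC (Sensititre BOPO7F bovine plate, CLSI methods) of 19 antimicrobials against field isolates of P. multocida, M. haemolytica, H. somni (deep nasopharyngeal swabs) and E. coli, Enterococcus spp. (rectal swabs) from weaned dairy heifers. Incubation 16-24 h at 35 C. MIC is the lowest concentration preventing visible growth. Values with <= or > lie at the tested range limits. Trimethoprim-sulfamethoxazole is given as the trimethoprim component of a 1:19 mixture.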

CC[C@H]1OC(=O)C[C@@H](O)[C@H](C)[C@@H](O[C@@H]2O[C@H](C)[C@@H](O)[C@H](N(C)C)[C@H]2O)[C@@H](CCN2C[C@H](C)C[C@H](C)C2)C[C@@H](C)C(=O)/C=C/C(C)=C/[C@@H]1CO[C@@H]1O[C@H](C)[C@@H](O)[C@@H](OC)[C@H]1OC [Tilmicosin]
Settings	minimum inhibitory concentration [µg/mL]
isolate (source animal id): 221	> 16
isolate (source animal id): 222	> 16
isolate (source animal id): 223	> 16
isolate (source animal id): 224	> 16
isolate (source animal id): 225	> 16
isolate (source animal id): 226	> 16
isolate (source animal id): 227	> 16
isolate (source animal id): 228	> 16
isolate (source animal id): 229	> 16
isolate (source animal id): 230	> 16
isolate (source animal id): 231	> 16
isolate (source animal id): 232	> 16
isolate (source animal id): 233	16 (≈ 18.4 µM)
isolate (source animal id): 234	> 16
isolate (source animal id): 235	> 16
isolate (source animal id): 236	> 16
isolate (source animal id): 237	> 16
isolate (source animal id): 238	16 (≈ 18.4 µM)
isolate (source animal id): 239	> 16
isolate (source animal id): 240	> 16
isolate (source animal id): 241	> 16
isolate (source animal id): 242	> 16
isolate (source animal id): 243	> 16
isolate (source animal id): 244	> 16
isolate (source animal id): 245	> 16
isolate (source animal id): 246	> 16
isolate (source animal id): 247	16 (≈ 18.4 µM)
isolate (source animal id): 248	> 16
isolate (source animal id): 249	> 16
isolate (source animal id): 250	> 16
isolate (source animal id): 251	> 16
isolate (source animal id): 252	> 16
isolate (source animal id): 253	> 16
isolate (source animal id): 254	> 16
isolate (source animal id): 255	> 16
isolate (source animal id): 256	> 16
isolate (source animal id): 257	> 16
isolate (source animal id): 258	> 16
isolate (source animal id): 259	> 16
isolate (source animal id): 260	> 16
isolate (source animal id): 261	> 16
isolate (source animal id): 262	> 16
isolate (source animal id): 263	> 16
isolate (source animal id): 264	> 16
isolate (source animal id): 265	> 16
isolate (source animal id): 266	> 16
isolate (source animal id): 267	> 16
isolate (source animal id): 268	> 16
isolate (source animal id): 269	> 16
isolate (source animal id): 270	> 16
isolate (source animal id): 271	> 16
isolate (source animal id): 272	> 16
isolate (source animal id): 273	> 16
isolate (source animal id): 274	> 16
isolate (source animal id): 275	> 16
isolate (source animal id): 276	> 16
isolate (source animal id): 277	> 16
isolate (source animal id): 278	> 16
isolate (source animal id): 279	> 16
isolate (source animal id): 280	> 16
isolate (source animal id): 281	> 16
isolate (source animal id): 282	> 16
isolate (source animal id): 283	> 16
isolate (source animal id): 284	> 16
isolate (source animal id): 285	> 16
isolate (source animal id): 286	> 16
isolate (source animal id): 287	> 16
isolate (source animal id): 288	> 16
isolate (source animal id): 289	> 16
isolate (source animal id): 290	> 16
isolate (source animal id): 291	> 16
isolate (source animal id): 292	> 16
isolate (source animal id): 293	> 16
isolate (source animal id): 294	16 (≈ 18.4 µM)
isolate (source animal id): 295	> 16
isolate (source animal id): 296	> 16
isolate (source animal id): 297	> 16
isolate (source animal id): 298	> 16
isolate (source animal id): 299	> 16
isolate (source animal id): 300	> 16
isolate (source animal id): 301	> 16
isolate (source animal id): 302	> 16
isolate (source animal id): 303	> 16
isolate (source animal id): 304	> 16
isolate (source animal id): 305	> 16
isolate (source animal id): 306	> 16
isolate (source animal id): 307	> 16
isolate (source animal id): 308	> 16
isolate (source animal id): 309	> 16
isolate (source animal id): 310	> 16
isolate (source animal id): 311	> 16
isolate (source animal id): 312	> 16
isolate (source animal id): 313	> 16
isolate (source animal id): 314	> 16
isolate (source animal id): 315	> 16
isolate (source animal id): 316	> 16
isolate (source animal id): 317	16 (≈ 18.4 µM)
isolate (source animal id): 318	> 16
isolate (source animal id): 319	> 16
isolate (source animal id): 320	> 16
isolate (source animal id): 321	> 16
isolate (source animal id): 322	> 16
isolate (source animal id): 323	> 16
isolate (source animal id): 324	> 16
isolate (source animal id): 325	> 16
isolate (source animal id): 326	> 16
isolate (source animal id): 327	> 16
isolate (source animal id): 328	> 16
isolate (source animal id): 329	> 16
isolate (source animal id): 330	> 16
isolate (source animal id): 331	> 16
isolate (source animal id): 332	> 16
isolate (source animal id): 333	> 16
isolate (source animal id): 334	> 16
isolate (source animal id): 335	> 16
isolate (source animal id): 336	> 16
isolate (source animal id): 337	> 16
isolate (source animal id): 338	> 16
isolate (source animal id): 339	> 16
isolate (source animal id): 340	> 16
isolate (source animal id): 341	> 16

From the supplement of paper PMC8612539
